For one molecule, binding results are on record in article PMC8589989.

The assay deals with GFP-tagged ZNF384 (isoform 2, containing 6 C2H2 motifs) (human). Kind of assay: affinity purification with mass spectrometry; GFP-Trap pull-down of GFP-ZNF384 versus GFP-NLS from U2OS Flp-In/T-Rex lysate (EBC buffer: 50 mM Tris pH 7.5, 150 mM NaCl, 0.5% NP-40, 2 mM MgCl2, benzonase), label-free MS.

Results are given in words; binding and its absence hold for the method and conditions named. Binding seen in cells or lysates may run through a third protein. A yes stands for co-enrichment or nearness to the bait. Other partners may have been found. No binding means not detected with the bait.

B1: endogenous APLF (protein, UniProt Q8IW19 1-511)
chain: MSGGFELQPRDGGPRVALAPGETVIGRGPLLGITDKRVSRRHAILEVAGGQLRIKPIHTNPCFYQSSEKSQLLPLKPNLWCYLNPGDSFSLLVDKYIFRILSIPSEVEMQCTLRNSQVLDEDNILNETPKSPVINLPHETTGASQLEGSTEIAKTQMTPTNSVSFLGENRDCNKQQPILAERKRILPTWMLAEHLSDQNLSVPAISGGNVIQGSGKEEICKDKSQLNTTQQGRRQLISSGSSENTSAEQDTGEECKNTDQEESTISSKEMPQSFSAITLSNTEMNNIKTNAQRNKLPIEELGKVSKHKIATKRTPHKEDEAMSCSENCSSAQGDSLQDESQGSHSESSSNPSNPETLHAKATDSVLQGSEGNKVKRTSCMYGANCYRKNPVHFQHFSHPGDSDYGGVQIVGQDETDDRPECPYGPSCYRKNPQHKIEYRHNTLPVRNVLDEDNDNVGQPNEYDLNDSFLDDEEEDYEPTDEDSDWEPGKEDEEKEDVEELLKEAKRFMKRK
Consider B1, for which the binding result was “no binding”.
